Measurements reported in PubChem BioAssay AID1259308 (NCATS, 2017).
The deposit covers about 59,000 reagents; this is a random part of them. Over the whole deposit, about 1,510 (2.6%) got an active call. 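Calls use total luciferase alone and ignore viability, so some active siRNAs may act by altering cell number.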 Reagents against one gene are numbered here.

Test: 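Knock-downs that increase output of a recombinant reporter protein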 (primary screen)
Cell system: human HEK293 embryonic kidney cells stably expressing firefly luciferase (HEK-CMV-Luc2-Hygro)
Reagents: single siRNA against human genes, 0.8 pmol siRNA per well
Time to read-out: 72 h
Read-out: 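Reporter luminescence and viable-cell signal on separate replicate plates, given as percent of non-targeting control and median/MAD z-scores, plus per-cell luciferase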
Reading the numbers: total luciferase, z-score and total luciferase, % of control: higher = more reporter protein produced; luciferase per cell, z-score: higher = more reporter output per viable cell; viable cells, % of control: higher = more viable cells
Hit rule: 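An siRNA counts as active if its total luciferase robust z-score exceeds 3; genes with two or more such siRNAs out of three were retested with fresh siRNAs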
Meaning of the calls: active = raised luciferase; inactive = no rise

| Target gene | siRNA no. | total luciferase, z-score | total luciferase, % of control | luciferase per cell, z-score | viable cells, % of control | call |
| --- | --- | --- | --- | --- | --- | --- |
| TCEAL2 | 1 | 0.175 | 85.4 | 0.0717 | 93.6 | inactive |
| TCEAL2 | 2 | 0.576 | 93.3 | 0.329 | 95.6 | inactive |
| TCEAL2 | 3 | 0.865 | 99.1 | 1.01 | 84.8 | inactive |
| GTF2H2C_2 | 1 | 2.93 | 140 | 1.8 | 97.5 | inactive |
| GTF2H2C_2 | 2 | 0.347 | 88.8 | 1.15 | 73.3 | inactive |
| GTF2H2C_2 | 3 | -0.0111 | 81.7 | -0.638 | 108 | inactive |
| TRPC6 | 1 | -0.582 | 70.3 | -0.774 | 96.3 | inactive |
| TRPC6 | 2 | 0.644 | 94.7 | 0.24 | 99.3 | inactive |
| TRPC6 | 3 | 0.744 | 96.7 | 1.21 | 78.6 | inactive |
| AIM2 | 1 | 1.24 | 107 | 2.22 | 66.4 | inactive |
| AIM2 | 2 | -0.603 | 69.9 | -0.763 | 95.5 | inactive |
| AIM2 | 3 | -0.36 | 74.7 | -0.239 | 88.9 | inactive |
| THOC6 | 1 | -0.439 | 73.2 | -0.438 | 91.7 | inactive |
| THOC6 | 2 | -0.861 | 64.8 | -0.592 | 84.6 | inactive |
| THOC6 | 3 | -0.0373 | 81.1 | -0.434 | 102 | inactive |
| DCLK1 | 1 | 1.07 | 103 | 1.37 | 80.3 | inactive |
| DCLK1 | 2 | 0.267 | 87.2 | 0.179 | 93 | inactive |
| DCLK1 | 3 | -0.0847 | 80.2 | -0.521 | 103 | inactive |
| TOR3A | 1 | 0.424 | 90.3 | 0.712 | 83.7 | inactive |
| TOR3A | 2 | 0.165 | 85.2 | 0.171 | 91 | inactive |
| TOR3A | 3 | -0.752 | 66.9 | -0.405 | 83.2 | inactive |
| PCDHA13 | 1 | 0.472 | 91.3 | 0.314 | 93.9 | inactive |
| PCDHA13 | 2 | -0.341 | 75.1 | 0.644 | 70.8 | inactive |
| PCDHA13 | 3 | -0.674 | 68.5 | -0.981 | 99.1 | inactive |

Targets above whose target name starts with D or d (3):
| Target gene | siRNA no. | total luciferase, z-score | total luciferase, % of control | luciferase per cell, z-score | viable cells, % of control | call |
| --- | --- | --- | --- | --- | --- | --- |
| DCLK1 | 1 | 1.07 | 103 | 1.37 | 80.3 | inactive |
| DCLK1 | 2 | 0.267 | 87.2 | 0.179 | 93 | inactive |
| DCLK1 | 3 | -0.0847 | 80.2 | -0.521 | 103 | inactive |
